Results reported in PubChem BioAssay AID1508600 (Functional Genomics Laboratory (NCATS/FGL), 2020).
The campaign covered roughly 53,000 sequences. About 3,700 (7%) were called active.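 The calls were made as follows: active = gene knockdowns whose robust z-score for IL-1 alpha signal is at least 2 or at most -2, so actives lie on both sides; inactive = the rest.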 This is one part of the list.

Experiment: Components of the Cytosolic LPS Sensing Pathway: Gene Identification via Genome-wide siRNA Screen;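 also: robust z of the log signal after scaling to non-targeting control siRNA wells of the plate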
Conditions: RAW264.7 macrophages, IL-1a HTRF, actives lie on both sides, screened at 100 nM (by protocol), cells primed 5 h with Pam3CSK4 first
Procedure, shortened: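 Supernatant IL-1a by HTRF from RAW264.7 cells primed with Pam3CSK4 (5 hours) and transfected with LipidA (24 hour) after 48h siRNA knockdown at 100 nM; cell viability checked with CellTiter-Glo.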

Sequence	z-score
GCUUCUUUUUGCUGAUGACTT against Vmn1r42	inactive: -0.53
GGACAUGAAGAAAAGCACCTT against Bin3	inactive: -0.376
GGCAUCAUCCAAAAUUCCCTT against Amd1	inactive: -1.89
GGCAUCAUCUCAGUCAUGUTT against Micos13	inactive: 0.465
GGACCUUGGGCAGAUUCAATT against Atp10d	inactive: 0.54
GCUAGGAUGUCUGAAAGAGTT against Ccdc178	inactive: 0.266
GGCGGACAGAAAUUAUAGATT against Tnpo3	active: 3.19
GCGAAUCCACUUAAUUCGATT against Abhd4	inactive: 1.35
GGAACAGGAAAAAUGAACUTT against Cetn2	inactive: -1.07
GGAAUUGGUAGACCACACCTT against Smr3a	inactive: 0.121
CCAUCUAUCAAAAGCAAAUTT against Reg1	inactive: -0.314
CGAUGCUUACGACAUUGUUTT against Dusp6	inactive: -0.174
CGAGAUUUCUAUUUCAGCATT against Mapre3	inactive: 0.222
GGUCAGCCAGACCAUUUCUTT against Edc3	inactive: -1.27
GGCUCUCUUGCUGUGGGUATT against Dll4	inactive: 1.95
GGGCAUUAAGUACAAAAAGTT against Ap1m2	inactive: 0.261
GGUCUAUGGAGACAUUAAATT against Ptprt	inactive: 0.294
CGAUUCCGUCAAAUUAAAGTT against Catsper2	inactive: 0.156
GGAGAAGUUCCCUAACAUGTT against Ppan	inactive: -1
CCACUCAUGAAGACGGAAGTT against Abat	inactive: -0.0609
GGCAAAGCUCUAAACGGGUTT against Cnih2	inactive: 1.21
GGAAAACUUUAGCUACAAATT against Ppp4r4	inactive: -0.231
GGUCACGGAGAAACUAAAGTT against Ppme1	inactive: 0.703

No new results follow: entries from further up.
Sequence	z-score
CCAUCUAUCAAAAGCAAAUTT against Reg1	inactive: -0.314
CGAUGCUUACGACAUUGUUTT against Dusp6	inactive: -0.174
CGAGAUUUCUAUUUCAGCATT against Mapre3	inactive: 0.222
GGUCAGCCAGACCAUUUCUTT against Edc3	inactive: -1.27

Remaining list, next part

Sequence	z-score
GGCACACACCAUAUGGUAATT against Ldb1	inactive: -0.176
GGAUAGCUUGAUCAAUCUUTT against Cisd2	inactive: -0.13
GGGACUCCUUUAAAUUUCUTT against Pipox	inactive: -0.458
GGAAGAAGCAGGUGAUUAATT against Grb14	inactive: -1.24
GGAUCUUCUACUAUUGAUATT against Paqr5	inactive: 0.439
GGGAUAGUGUUCCUUAUCUTT against Neu1	active: -2.6
CCACAGUGAGCCAUCGAUATT against Slfn8	inactive: -0.301
GGAAAGAAUCGAUUUAGACTT against Slc5a4a	inactive: 1.31
GCUCGCUAAAGUGAUUAAATT against Gm5533	inactive: 0.867
CCGAUCUGAUAUAGUAGAATT against Stk31	active: 2.18
GCUAUACCAAGUGGAUAGUTT against Prkaa1	inactive: 1.39
GGUCCAGCUCAUGAAACUUTT against Sik1	inactive: 0.147
GGUUUUGCCUCCCAUAGUATT against Ssty1	inactive: 0.112
CCACAGUCCCAGUUUCAAGTT against Mcee	inactive: -0.91
GGAGAAAGUUGAACGUAUUTT against Cct2	active: -2.58
GGAACUUUAUAAGGACUAUTT against Xlr4b	inactive: -0.621
GGUACUCUGUGGAUAUCCCTT against Rpl27	inactive: -0.224
GCGAAAGAAAGUUUUGCUGTT against Krit1	inactive: -0.0186
GGAAUAGACUUGGAAUCUATT against Ccdc40	inactive: -0.486
CCUACAGACGGAUACCAGATT against 9930012K11Rik	inactive: 0.844
GGUUUUUCGAGUUUUUUCUTT against Msx1	inactive: 1.06
GCGUAACUACUACAUGAAUTT against Ano9	active: -2.33
CGCCAAUAUGGCCAUUGACTT against Ikzf2	inactive: -0.304

Sequence	z-score
GGUGUGGCUGAUGUAUAAATT against Syt7	inactive: 0.378
GGCGAGAGAUGUUCGACAATT against Ubr2	inactive: 0.747
CCAUUGUCACUCCUAGUGUTT against Olfr1361	inactive: 1.03
GGCAGAAAAUAAUUACUUGTT against Sh3d19	inactive: 1.28
GGUACUUGAAGACUUGGAGTT against Rasal1	inactive: 3e-05
GGAAAGAAUAUGAGAAUGCTT against Reck	inactive: -1.13
GCACAGUAGUGAAAGUGAATT against Hspa14	inactive: -0.0241
GCAUAACUCAUGAUCUCCUTT against Oit3	inactive: 0.0243
GGACUUGUCUGGAUUUUGGTT against Mal2	inactive: 0.0138
GGUCAGAGUGCCUCUUGAATT against Slc7a5	inactive: -0.8
CCCUGAAGAAGUUUGAUACTT against Gcfc2	inactive: 0.856
GCUUACUAAUGCGGAUUACTT against 5330438D12Rik	active: -2.41
GGACGGUCUCAACUUUUCCTT against Icam2	inactive: 0.513
GUUAAGAUUUAGGCAUCAATT against Olfr805	inactive: 0.125
GGAGAUGCCUAGUAUGAGCTT against Onecut2	inactive: 0.0984
GGCCAAUUUCUUCACUUCUTT against Ints11	inactive: -0.809
GGAGAAGAAUUCAUUUCUCTT against Kat7	inactive: -1.19
GGUACAAUCGAAAGUACUUTT against Spns1	inactive: -0.501
GGUCAAGACGGUCUACCGATT against Rab3d	inactive: -0.571
CCAUGAAGUCCCAUGUUAUTT against Tpo	inactive: -0.0198
GGGAAAUCUCUGAUUACAUTT against Eif2ak3	inactive: 0.382
GGCUCCUGGCUUUAUCCUGTT against Olfr107	inactive: 0.13
GGCUUUCUUCUAGAAUGAGTT against Nptx1	inactive: -0.938
